Results: patent US20080131510A1
These are yes or no findings as the source states them, for the method shown. Some binding calls cover weakened binding; strength is not graded here.

Chains of the proteins cited; added tags and fusions are not shown. Residues count along the entry.
UniProt P08253, residues 110-660: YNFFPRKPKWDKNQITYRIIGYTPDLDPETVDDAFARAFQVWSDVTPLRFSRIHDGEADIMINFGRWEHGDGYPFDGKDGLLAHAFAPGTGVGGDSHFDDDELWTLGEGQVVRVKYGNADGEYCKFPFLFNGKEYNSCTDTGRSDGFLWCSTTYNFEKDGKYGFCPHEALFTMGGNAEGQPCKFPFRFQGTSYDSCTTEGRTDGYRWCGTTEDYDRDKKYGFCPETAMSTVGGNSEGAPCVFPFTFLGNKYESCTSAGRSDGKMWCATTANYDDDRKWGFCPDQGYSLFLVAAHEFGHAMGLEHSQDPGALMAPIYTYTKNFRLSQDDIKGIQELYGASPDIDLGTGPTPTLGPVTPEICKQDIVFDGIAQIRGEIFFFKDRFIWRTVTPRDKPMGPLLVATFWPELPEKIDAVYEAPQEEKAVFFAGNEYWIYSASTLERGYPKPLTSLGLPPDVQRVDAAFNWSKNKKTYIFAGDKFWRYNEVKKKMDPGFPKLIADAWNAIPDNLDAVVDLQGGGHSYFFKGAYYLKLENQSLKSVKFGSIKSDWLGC
UniProt P14780, residues 107-707: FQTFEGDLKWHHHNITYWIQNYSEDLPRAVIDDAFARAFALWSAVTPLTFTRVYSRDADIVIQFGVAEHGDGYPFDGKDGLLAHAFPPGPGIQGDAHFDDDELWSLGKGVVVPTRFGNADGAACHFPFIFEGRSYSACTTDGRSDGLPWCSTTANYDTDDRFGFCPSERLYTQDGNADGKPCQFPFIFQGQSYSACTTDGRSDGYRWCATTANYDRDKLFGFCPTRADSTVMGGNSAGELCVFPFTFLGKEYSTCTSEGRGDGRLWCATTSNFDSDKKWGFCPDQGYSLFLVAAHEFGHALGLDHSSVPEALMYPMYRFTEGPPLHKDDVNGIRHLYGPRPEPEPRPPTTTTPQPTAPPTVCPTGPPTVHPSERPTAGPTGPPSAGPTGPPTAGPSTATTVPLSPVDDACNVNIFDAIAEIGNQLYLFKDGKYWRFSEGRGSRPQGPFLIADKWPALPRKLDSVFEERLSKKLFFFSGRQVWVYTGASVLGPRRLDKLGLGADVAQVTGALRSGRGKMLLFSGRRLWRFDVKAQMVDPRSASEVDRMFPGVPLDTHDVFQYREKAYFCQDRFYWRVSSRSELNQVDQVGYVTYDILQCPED

What was measured:
[1] = target: matrix metalloprotease-2 (MMP-2), activated (UniProt P08253); assay: peptide cleavage kinetics by HPLC
[2] = target: matrix metalloprotease-9 (MMP-9), activated (UniProt P14780); assay: peptide cleavage kinetics by HPLC

B1: Lys*-Pro-Ala-Gly-Leu-Leu-Gly-Cys (SEQ ID NO:2) (peptide)
peptide: KPAGLLGC
modifications: fluorescein containing lysine (Lys*) at position 1
In the case of B1, the binding [1] is reported as “binds” and the binding [2] is reported as “binds”.
